# According to the supplement of paper PMC8728848:
# The list shows a part of the results.
# Assays:
# Test in all cases: glycan array binding signal (z-score within array); higher = stronger binding
# Conditions in all cases: glycan notation: IUPAC condensed, linker removed
# [1] = molecular target: Gal(a1-6)Glc
# In short: (§1)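 Glycan array data were curated from 3228 arrays in the Consortium for Functional Glycomics database and kept only where the protein sequence was available. Glycan names were converted to IUPAC-condensed notation, and columns mapping to the same glycan were averaged. The binding signal is a within-array Z-score, averaged across arrays of the same protein sequence at different concentrations or buffers and across linkers. Negative Z-scores can be read as non-binding.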
# [2] = molecular target: Gal(b1-2)Gal
# In short: as §1
# [3] = molecular target: Gal(b1-3)Gal
# In short: as §1
# [4] = molecular target: Gal(b1-3)Gal(b1-4)GlcNAc
# In short: as §1
# [5] = molecular target: Gal(b1-3)GalNAc
# In short: as §1
# [6] = molecular target: Gal(b1-3)GalNAc(a1-3)[Fuc(a1-2)]Gal(b1-4)Glc
# In short: as §1
# [7] = molecular target: Gal(b1-3)GalNAc(a1-3)[Fuc(a1-2)]Gal(b1-4)GlcNAc
# In short: as §1
# [8] = molecular target: Gal(b1-3)GalNAc(b1-3)Gal
# In short: as §1
# [9] = molecular target: Gal(b1-3)GalNAc(b1-3)Gal(a1-4)Gal(b1-4)Glc
# In short: as §1
# [10] = molecular target: Gal(b1-3)GalNAc(b1-4)Gal(b1-4)Glc
# In short: as §1
# [11] = molecular target: Gal(b1-3)GalNAc(b1-4)[Neu5Ac(a2-3)]Gal(b1-4)Glc
# In short: as §1
# [12] = molecular target: Gal(b1-3)GlcNAc
# In short: as §1
# [13] = molecular target: Gal(b1-3)GlcNAc(a1-3)Gal(b1-4)GlcNAc
# In short: as §1
# [14] = molecular target: Gal(b1-3)GlcNAc(a1-6)Gal(b1-4)GlcNAc
# In short: as §1
# [15] = molecular target: Gal(b1-3)GlcNAc(b1-2)Man
# In short: as §1
# [16] = molecular target: Gal(b1-3)GlcNAc(b1-2)Man(a1-3)[Gal(b1-3)GlcNAc(b1-2)Man(a1-6)]Man(b1-4)GlcNAc(b1-4)GlcNAc
# In short: as §1
# [17] = molecular target: Gal(b1-3)GlcNAc(b1-2)Man(a1-3)[Gal(b1-3)GlcNAc(b1-2)Man(a1-6)]Man(b1-4)GlcNAc(b1-4)[Fuc(a1-6)]GlcNAc
# In short: as §1
# [18] = molecular target: Gal(b1-3)GlcNAc(b1-2)Man(a1-3)[GlcNAc(b1-4)][Gal(b1-3)GlcNAc(b1-2)Man(a1-6)]Man(b1-4)GlcNAc(b1-4)GlcNAc
# In short: as §1
# [19] = molecular target: Gal(b1-3)GlcNAc(b1-2)[Gal(b1-3)GlcNAc(b1-6)]Man(a1-6)[Gal(b1-3)GlcNAc(b1-2)Man(a1-3)]Man(b1-4)GlcNAc(b1-4)GlcNAc
# In short: as §1
# [20] = molecular target: Gal(b1-3)GlcNAc(b1-3)Gal(b1-3)GlcNAc
# In short: as §1
# [21] = molecular target: Gal(b1-3)GlcNAc(b1-3)Gal(b1-4)Glc
# In short: as §1
# [22] = molecular target: Gal(b1-3)GlcNAc(b1-3)Gal(b1-4)GlcNAc
# In short: as §1
# [23] = molecular target: Gal(b1-3)GlcNAc(b1-3)Gal(b1-4)GlcNAc(b1-2)Man(a1-3)[Gal(b1-3)GlcNAc(b1-3)Gal(b1-4)GlcNAc(b1-2)Man(a1-6)]Man(b1-4)GlcNAc(b1-4)GlcNAc
# In short: as §1
# [24] = molecular target: Gal(b1-3)GlcNAc(b1-3)Gal(b1-4)GlcNAc(b1-2)[Gal(b1-3)GlcNAc(b1-3)Gal(b1-4)GlcNAc(b1-6)]Man(a1-6)[Gal(b1-3)GlcNAc(b1-3)Gal(b1-4)GlcNAc(b1-2)Man(a1-3)]Man(b1-4)GlcNAc(b1-4)[Fuc(a1-6)]GlcNAc
# In short: as §1
# [25] = molecular target: Gal(b1-3)GlcNAc(b1-3)Gal(b1-4)GlcNAc(b1-3)Gal(b1-4)GlcNAc(b1-2)[Gal(b1-3)GlcNAc(b1-3)Gal(b1-4)GlcNAc(b1-3)Gal(b1-4)GlcNAc(b1-6)]Man(a1-6)[Gal(b1-3)GlcNAc(b1-3)Gal(b1-4)GlcNAc(b1-3)Gal(b1-4)GlcNAc(b1-2)Man(a1-3)]Man(b1-4)GlcNAc(b1-4)[Fuc(a1-6)]GlcNAc
# In short: as §1
# [26] = molecular target: Gal(b1-3)GlcNAc(b1-3)Gal(b1-4)GlcNAc(b1-6)[Gal(b1-3)GlcNAc(b1-3)]Gal(b1-4)Glc
# In short: as §1
# [27] = molecular target: Gal(b1-3)GlcNAc(b1-3)Gal(b1-4)[Fuc(a1-3)]GlcNAc
# In short: as §1
# [28] = molecular target: Gal(b1-3)GlcNAc(b1-3)Gal(b1-4)[Fuc(a1-3)]GlcNAc(b1-6)[Gal(b1-3)GlcNAc(b1-3)]Gal(b1-4)Glc
# In short: as §1
# [29] = molecular target: Gal(b1-3)GlcNAc(b1-3)GalNAc
# In short: as §1
# [30] = molecular target: Gal(b1-3)GlcNAc(b1-6)Gal(b1-4)GlcNAc
# In short: as §1
# [31] = molecular target: Gal(b1-3)GlcNAc(b1-6)GalNAc
# In short: as §1
# [32] = molecular target: Gal(b1-3)GlcNAc(b1-6)[Gal(b1-3)]GalNAc
# In short: as §1
# [33] = molecular target: Gal(b1-3)GlcNAc6S
# In short: as §1
# [34] = molecular target: Gal(b1-3)[Fuc(a1-4)]GlcNAc
# In short: as §1
# [35] = molecular target: Gal(b1-3)[Fuc(a1-4)]GlcNAc(b1-2)Man
# In short: as §1
# [36] = molecular target: Gal(b1-3)[Fuc(a1-4)]GlcNAc(b1-2)Man(a1-3)[Gal(b1-3)[Fuc(a1-4)]GlcNAc(b1-2)Man(a1-6)]Man(b1-4)GlcNAc(b1-4)[Fuc(a1-6)]GlcNAc
# In short: as §1
# [37] = molecular target: Gal(b1-3)[Fuc(a1-4)]GlcNAc(b1-3)Gal(b1-3)[Fuc(a1-4)]GlcNAc
# In short: as §1
binder,measurement,setting,value
"HA-61200 (Pseudomonas aeruginosa), Q02SP8_PSEAB (protein) MNKCYALVWNVSQGCWNVVSEGSRRRGKPAGAKAAIASVLALLGATALAPAYALPSGGTVVGGSANGEIHLSGGNSLSVNQKVDKLIANWDSFSVAAGERVIFNQPSSSSIALNRVIGTKASDIQGRIDANGQVFLVNPNGVLFGRGAQVNVGGLVASTLDITDAEFNGNSSRYRFTGPSTNGVLNHGGAITAAEGGSIALLGAQVDNRGTVLAQMGGVGLGAGSDLTLNFDGNKLLDIRVDAGVANALASNGGLLKADGGRVLMAARTANALLNTVVNSQGAIEARSLRGKNGRIVLDG",glycan array binding signal (z-score),[1],0.384
same,glycan array binding signal (z-score),[2],-0.607
same,glycan array binding signal (z-score),[3],-0.137
same,glycan array binding signal (z-score),[4],0.122
same,glycan array binding signal (z-score),[5],-0.172
same,glycan array binding signal (z-score),[6],-0.155
same,glycan array binding signal (z-score),[7],-0.34
same,glycan array binding signal (z-score),[8],-0.879
same,glycan array binding signal (z-score),[9],1.09
same,glycan array binding signal (z-score),[10],-0.357
same,glycan array binding signal (z-score),[11],2.35
same,glycan array binding signal (z-score),[12],-0.668
same,glycan array binding signal (z-score),[13],-0.012
same,glycan array binding signal (z-score),[14],-0.002
same,glycan array binding signal (z-score),[15],0.38
same,glycan array binding signal (z-score),[16],-0.154
same,glycan array binding signal (z-score),[17],5.22
same,glycan array binding signal (z-score),[18],0.796
same,glycan array binding signal (z-score),[19],1.86
same,glycan array binding signal (z-score),[20],-0.565
same,glycan array binding signal (z-score),[21],-0.019
same,glycan array binding signal (z-score),[22],-0.049
same,glycan array binding signal (z-score),[23],-0.142
same,glycan array binding signal (z-score),[24],1.69
same,glycan array binding signal (z-score),[25],2.44
same,glycan array binding signal (z-score),[26],-0.286
same,glycan array binding signal (z-score),[27],0.98
same,glycan array binding signal (z-score),[28],-1.04
same,glycan array binding signal (z-score),[29],-1.07
same,glycan array binding signal (z-score),[30],-0.809
same,glycan array binding signal (z-score),[31],0.257
same,glycan array binding signal (z-score),[32],-0.334
same,glycan array binding signal (z-score),[33],0.306
same,glycan array binding signal (z-score),[34],-0.017
same,glycan array binding signal (z-score),[35],1.09
same,glycan array binding signal (z-score),[36],0.349
same,glycan array binding signal (z-score),[37],-0.534

# 2 entries from above, bar-delimited.
binder | measurement | setting | value
HA-61200 (Pseudomonas aeruginosa), Q02SP8_PSEAB (protein) MNKCYALVWNVSQGCWNVVSEGSRRRGKPAGAKAAIASVLALLGATALAPAYALPSGGTVVGGSANGEIHLSGGNSLSVNQKVDKLIANWDSFSVAAGERVIFNQPSSSSIALNRVIGTKASDIQGRIDANGQVFLVNPNGVLFGRGAQVNVGGLVASTLDITDAEFNGNSSRYRFTGPSTNGVLNHGGAITAAEGGSIALLGAQVDNRGTVLAQMGGVGLGAGSDLTLNFDGNKLLDIRVDAGVANALASNGGLLKADGGRVLMAARTANALLNTVVNSQGAIEARSLRGKNGRIVLDG | glycan array binding signal (z-score) | [2] | -0.607
same | glycan array binding signal (z-score) | [36] | 0.349
